# Experimental data as given in publication PMC12378768.
# By UniProt entry, the sequences of proteins in these tests, tags left out.
# UniProt P35222: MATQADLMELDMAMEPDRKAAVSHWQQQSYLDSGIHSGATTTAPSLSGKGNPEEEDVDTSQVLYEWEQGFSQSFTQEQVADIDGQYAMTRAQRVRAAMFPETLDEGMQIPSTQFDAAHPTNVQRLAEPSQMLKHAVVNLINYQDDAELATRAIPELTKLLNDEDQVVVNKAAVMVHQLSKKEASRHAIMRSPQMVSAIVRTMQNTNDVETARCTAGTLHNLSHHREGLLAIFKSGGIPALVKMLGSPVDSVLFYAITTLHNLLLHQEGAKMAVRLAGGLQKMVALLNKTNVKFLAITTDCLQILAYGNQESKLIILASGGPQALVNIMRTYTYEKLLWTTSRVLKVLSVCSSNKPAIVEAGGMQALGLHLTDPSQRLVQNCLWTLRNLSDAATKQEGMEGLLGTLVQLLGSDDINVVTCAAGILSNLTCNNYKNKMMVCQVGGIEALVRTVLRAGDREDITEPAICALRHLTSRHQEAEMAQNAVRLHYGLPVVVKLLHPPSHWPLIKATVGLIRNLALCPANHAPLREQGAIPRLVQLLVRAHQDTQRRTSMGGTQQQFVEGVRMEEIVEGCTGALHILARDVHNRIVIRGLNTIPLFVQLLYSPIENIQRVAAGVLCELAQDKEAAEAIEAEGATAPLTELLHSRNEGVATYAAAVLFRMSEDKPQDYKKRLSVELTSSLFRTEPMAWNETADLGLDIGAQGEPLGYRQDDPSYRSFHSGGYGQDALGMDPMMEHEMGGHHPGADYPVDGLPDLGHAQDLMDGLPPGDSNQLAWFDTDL
# Results are given in words; binding and its absence hold for the method and conditions named. Binding seen in cells or lysates may run through a third protein. Here binding means that the protein was enriched with, or labelled near, the bait; the list need not be complete. Tags and fused reporters may be left off the sequences shown.
# Molecular target: T1, KCTD10 (potassium channel tetramerisation domain-containing 10), Flag-tagged, stably overexpressed in A549 cells (UniProt Q9H3F6)
# T1 sequence: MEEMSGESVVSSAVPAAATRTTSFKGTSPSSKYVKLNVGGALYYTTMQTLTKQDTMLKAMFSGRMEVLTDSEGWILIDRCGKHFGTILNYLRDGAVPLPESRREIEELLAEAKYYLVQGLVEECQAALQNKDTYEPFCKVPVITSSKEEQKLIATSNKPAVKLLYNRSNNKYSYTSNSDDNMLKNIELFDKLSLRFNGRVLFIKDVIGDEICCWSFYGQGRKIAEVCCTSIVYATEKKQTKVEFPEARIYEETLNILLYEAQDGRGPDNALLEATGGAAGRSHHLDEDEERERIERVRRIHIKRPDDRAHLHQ
# Test: affinity purification with mass spectrometry; immunoprecipitation with anti-Flag-tag antibody or IgG from KCTD10-overexpressing A549 cells; 10% SDS-PAGE, silver stain, mass spectrometry of differential bands
substance,measurement,value
"β-catenin (cadherin-associated protein, beta 1), endogenous (from UniProt P35222 1-781)",binding,binds
